No constants are given. Whether binding was seen depends on the method and setting. For part of these data: A result given as binding can be weak or reduced; the word gives no strength.

Chains of the proteins cited; added tags and fusions are not shown. Lines headed by an entry give the natural chain unless they say otherwise; changes in a name come on top.
UniProt P54764: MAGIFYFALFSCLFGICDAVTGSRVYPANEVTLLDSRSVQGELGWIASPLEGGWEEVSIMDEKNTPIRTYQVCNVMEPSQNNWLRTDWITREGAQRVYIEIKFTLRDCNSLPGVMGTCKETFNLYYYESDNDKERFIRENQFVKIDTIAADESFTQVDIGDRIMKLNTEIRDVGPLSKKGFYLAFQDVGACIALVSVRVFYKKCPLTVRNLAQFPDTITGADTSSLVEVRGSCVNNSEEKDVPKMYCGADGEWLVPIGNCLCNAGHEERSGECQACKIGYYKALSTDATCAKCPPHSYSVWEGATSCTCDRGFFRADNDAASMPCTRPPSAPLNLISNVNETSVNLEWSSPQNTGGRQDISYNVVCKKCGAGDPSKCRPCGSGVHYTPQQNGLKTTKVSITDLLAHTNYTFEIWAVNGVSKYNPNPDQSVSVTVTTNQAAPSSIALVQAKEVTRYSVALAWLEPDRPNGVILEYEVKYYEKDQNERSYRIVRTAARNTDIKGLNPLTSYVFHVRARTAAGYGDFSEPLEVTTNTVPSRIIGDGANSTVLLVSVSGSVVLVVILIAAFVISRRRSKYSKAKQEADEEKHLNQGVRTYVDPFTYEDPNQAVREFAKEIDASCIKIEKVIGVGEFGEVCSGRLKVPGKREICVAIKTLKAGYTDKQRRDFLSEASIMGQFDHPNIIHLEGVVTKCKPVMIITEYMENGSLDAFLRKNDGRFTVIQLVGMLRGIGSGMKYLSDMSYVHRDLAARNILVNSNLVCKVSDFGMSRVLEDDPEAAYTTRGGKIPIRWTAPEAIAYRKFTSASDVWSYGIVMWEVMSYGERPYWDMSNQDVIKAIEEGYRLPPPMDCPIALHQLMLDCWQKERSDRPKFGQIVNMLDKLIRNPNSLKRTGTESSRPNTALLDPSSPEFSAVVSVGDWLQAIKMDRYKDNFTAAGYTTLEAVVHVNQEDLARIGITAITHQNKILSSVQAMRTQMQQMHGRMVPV
UniProt Q9UF33: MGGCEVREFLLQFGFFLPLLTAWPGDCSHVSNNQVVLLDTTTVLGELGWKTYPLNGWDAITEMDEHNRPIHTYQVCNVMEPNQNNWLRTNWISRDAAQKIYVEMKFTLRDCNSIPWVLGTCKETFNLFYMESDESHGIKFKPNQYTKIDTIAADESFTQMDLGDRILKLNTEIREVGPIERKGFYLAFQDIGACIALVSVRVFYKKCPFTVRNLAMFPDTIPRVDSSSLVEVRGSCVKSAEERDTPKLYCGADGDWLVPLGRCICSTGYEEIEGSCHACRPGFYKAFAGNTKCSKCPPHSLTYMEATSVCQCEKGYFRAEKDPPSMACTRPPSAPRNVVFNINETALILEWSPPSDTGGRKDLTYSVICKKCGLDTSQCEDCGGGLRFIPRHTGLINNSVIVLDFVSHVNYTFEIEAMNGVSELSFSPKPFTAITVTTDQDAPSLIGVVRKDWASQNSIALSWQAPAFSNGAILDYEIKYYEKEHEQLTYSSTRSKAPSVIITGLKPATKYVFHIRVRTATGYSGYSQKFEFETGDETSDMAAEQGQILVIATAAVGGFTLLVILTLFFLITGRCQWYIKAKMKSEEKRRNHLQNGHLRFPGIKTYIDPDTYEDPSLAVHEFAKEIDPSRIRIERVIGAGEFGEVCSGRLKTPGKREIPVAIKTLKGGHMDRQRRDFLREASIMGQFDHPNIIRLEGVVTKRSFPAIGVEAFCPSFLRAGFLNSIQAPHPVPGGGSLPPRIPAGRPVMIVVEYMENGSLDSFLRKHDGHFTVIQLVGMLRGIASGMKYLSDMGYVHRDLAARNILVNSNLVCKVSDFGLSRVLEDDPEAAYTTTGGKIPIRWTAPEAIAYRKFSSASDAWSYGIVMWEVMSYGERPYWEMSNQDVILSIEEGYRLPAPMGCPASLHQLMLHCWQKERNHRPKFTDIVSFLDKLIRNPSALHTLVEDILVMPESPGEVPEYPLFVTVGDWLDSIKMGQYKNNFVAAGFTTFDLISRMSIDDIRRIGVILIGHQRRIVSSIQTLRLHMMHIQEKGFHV
UniProt Q15375: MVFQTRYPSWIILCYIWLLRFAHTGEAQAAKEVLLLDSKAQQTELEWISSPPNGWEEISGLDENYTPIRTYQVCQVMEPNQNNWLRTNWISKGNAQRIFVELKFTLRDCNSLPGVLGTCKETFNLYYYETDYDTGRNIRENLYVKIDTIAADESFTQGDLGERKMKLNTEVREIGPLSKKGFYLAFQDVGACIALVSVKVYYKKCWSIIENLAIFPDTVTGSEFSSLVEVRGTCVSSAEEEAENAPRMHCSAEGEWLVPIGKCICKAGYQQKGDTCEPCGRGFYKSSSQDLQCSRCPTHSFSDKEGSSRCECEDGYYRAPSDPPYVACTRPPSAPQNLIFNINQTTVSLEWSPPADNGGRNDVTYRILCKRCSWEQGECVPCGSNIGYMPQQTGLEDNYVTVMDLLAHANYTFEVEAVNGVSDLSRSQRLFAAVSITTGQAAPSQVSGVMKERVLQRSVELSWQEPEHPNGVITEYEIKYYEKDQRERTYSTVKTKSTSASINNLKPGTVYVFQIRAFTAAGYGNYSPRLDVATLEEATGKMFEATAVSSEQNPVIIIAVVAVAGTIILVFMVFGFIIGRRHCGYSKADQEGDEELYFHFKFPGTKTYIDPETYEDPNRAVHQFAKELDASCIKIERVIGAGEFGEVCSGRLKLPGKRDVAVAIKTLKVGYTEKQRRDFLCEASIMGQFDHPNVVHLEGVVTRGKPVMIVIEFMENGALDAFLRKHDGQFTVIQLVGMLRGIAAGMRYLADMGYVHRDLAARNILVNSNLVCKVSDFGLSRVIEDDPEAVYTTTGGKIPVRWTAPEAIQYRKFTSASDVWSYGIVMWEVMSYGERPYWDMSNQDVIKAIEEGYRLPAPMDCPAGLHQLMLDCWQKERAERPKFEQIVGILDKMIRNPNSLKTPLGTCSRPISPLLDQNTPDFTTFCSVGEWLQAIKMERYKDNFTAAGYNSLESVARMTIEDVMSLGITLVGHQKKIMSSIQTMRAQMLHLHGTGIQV
UniProt P29322: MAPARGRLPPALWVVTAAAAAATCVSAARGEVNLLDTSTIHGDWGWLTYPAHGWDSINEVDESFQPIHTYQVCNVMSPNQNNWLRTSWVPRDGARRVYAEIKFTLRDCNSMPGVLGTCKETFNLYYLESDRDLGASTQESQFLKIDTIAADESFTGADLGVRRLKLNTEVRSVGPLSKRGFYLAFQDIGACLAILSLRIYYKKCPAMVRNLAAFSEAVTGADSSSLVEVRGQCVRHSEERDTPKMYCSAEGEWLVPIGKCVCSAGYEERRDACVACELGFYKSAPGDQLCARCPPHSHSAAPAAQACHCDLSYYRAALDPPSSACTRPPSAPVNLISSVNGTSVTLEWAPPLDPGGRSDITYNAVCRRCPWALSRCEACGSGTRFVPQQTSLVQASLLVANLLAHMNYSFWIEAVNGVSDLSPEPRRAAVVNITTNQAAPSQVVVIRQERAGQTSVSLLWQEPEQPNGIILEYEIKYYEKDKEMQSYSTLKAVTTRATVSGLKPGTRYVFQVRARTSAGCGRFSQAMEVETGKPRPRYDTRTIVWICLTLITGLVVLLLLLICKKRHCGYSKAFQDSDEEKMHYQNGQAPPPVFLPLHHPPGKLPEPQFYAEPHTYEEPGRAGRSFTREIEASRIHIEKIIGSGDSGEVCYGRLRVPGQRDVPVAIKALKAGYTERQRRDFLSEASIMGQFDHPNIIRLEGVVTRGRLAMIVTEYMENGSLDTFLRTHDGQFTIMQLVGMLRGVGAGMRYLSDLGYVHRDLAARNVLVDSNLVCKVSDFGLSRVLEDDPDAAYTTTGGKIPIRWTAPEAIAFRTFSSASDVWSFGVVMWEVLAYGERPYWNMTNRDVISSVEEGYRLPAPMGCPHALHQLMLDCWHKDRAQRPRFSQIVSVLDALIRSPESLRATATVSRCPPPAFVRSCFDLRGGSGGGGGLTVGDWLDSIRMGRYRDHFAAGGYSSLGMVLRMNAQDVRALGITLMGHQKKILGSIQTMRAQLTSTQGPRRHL

In one experiment the target is T1, VAPB coiled-coil domain, CCD(152–195) (human) (UniProt O95292).
T1 sequence (chain, 15N-labelled): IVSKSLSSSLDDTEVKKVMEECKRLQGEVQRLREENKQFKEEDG
The experiment is described as follows: NMR titration; 1H-15N HSQC of 15N-labelled VAPB protein (50 uM) with unlabelled NS5B or Eph protein added at different molar ratios (increment 0.5 for C-linker and Eph); 10 mM phosphate buffer pH 6.8, 25 C, 800 MHz; CSD tracings fitted with a one binding site model for residue-specific Kd; both purified.
For the substance “C-His-tagged NS5B(1–570) (Hepatitis C virus genotype 1b strain S1) (domain or fragment)”, the binding entry is recorded as “no binding”.

Regarding “N-His-tagged NS5B(1–570) (Hepatitis C virus genotype 1b strain S1) (domain or fragment)”, the binding entry is “no binding”.

Another experiment concerns the target VAPB-MSP domain, MSP(1–125) (human) (UniProt O95292). The description is as above.
For the substance “EphA4 ligand binding domain (LBD) (from UniProt P54764) (domain or fragment)”, the binding entry is reported as “binds weakly”.

Regarding “EphA6 ligand binding domain (LBD) (from UniProt Q9UF33) (domain or fragment)”, the binding result is recorded as “binds weakly”.

As for “EphA7 ligand binding domain (LBD) (from UniProt Q15375) (domain or fragment)”, the binding result is recorded as “binds weakly”.

In the case of “EphA8 ligand binding domain (LBD) (from UniProt P29322) (domain or fragment)”, the binding result is “binds weakly”.
